Data published in article PMC2204056.
Results are given in words; binding and its absence hold for the method and conditions named. In cells and extracts the contact can be indirect. Some binding calls cover weakened binding; strength is not graded here. Tags and fused reporters may be left off the sequences shown.

Biological target: T1, K+ channel regulator protein 1 (KCR1) with three N-terminal FLAG epitopes (rat) (UniProt O88788)
T1 sequence: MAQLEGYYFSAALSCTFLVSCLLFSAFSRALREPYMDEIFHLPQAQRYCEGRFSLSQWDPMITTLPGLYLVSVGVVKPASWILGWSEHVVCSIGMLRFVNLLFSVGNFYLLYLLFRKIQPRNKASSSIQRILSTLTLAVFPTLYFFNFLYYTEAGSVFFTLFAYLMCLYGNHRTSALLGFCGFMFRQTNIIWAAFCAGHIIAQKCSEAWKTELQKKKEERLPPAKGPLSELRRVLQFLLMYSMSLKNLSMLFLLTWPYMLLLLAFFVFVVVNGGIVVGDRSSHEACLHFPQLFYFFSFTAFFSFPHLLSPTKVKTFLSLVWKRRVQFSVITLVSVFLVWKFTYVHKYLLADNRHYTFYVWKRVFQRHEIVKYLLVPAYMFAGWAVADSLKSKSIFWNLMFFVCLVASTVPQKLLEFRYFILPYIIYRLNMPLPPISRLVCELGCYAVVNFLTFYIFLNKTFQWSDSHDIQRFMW
Assay: co-IP; CHO cells cotransfected with HCN2 and pCFLAG^3-KCR1; 700 µg of extract (50 mM Tris pH 7.4, 150 mM NaCl, 0.25% Triton X-100, 5 mM NaF) immunoprecipitated with anti-FLAG-M2 Sepharose, Western blot with anti-HCN2 antibody; controls: pCFLAG^3-KCR1 alone, HCN2 plus empty FLAG vector, mock precipitation with A-Sepharose

B1: HCN2 (hyperpolarization-activated, cyclic nucleotide-gated ion channel subunit 2) (protein, UniProt O88703 1-863)
chain: MDARGGGGRPGDSPGTTPAPGPPPPPPPPAPPQPQPPPAPPPNPTTPSHPESADEPGPRARLCSRDSACTPGAAKGGANGECGRGEPQCSPEGPARGPKVSFSCRGAASGPSAAEEAGSEEAGPAGEPRGSQASFLQRQFGALLQPGVNKFSLRMFGSQKAVEREQERVKSAGAWIIHPYSDFRFYWDFTMLLFMVGNLIIIPVGITFFKDETTAPWIVFNVVSDTFFLMDLVLNFRTGIVIEDNTEIILDPEKIKKKYLRTWFVVDFVSSIPVDYIFLIVEKGIDSEVYKTARALRIVRFTKILSLLRLLRLSRLIRYIHQWEEIFHMTYDLASAVMRICNLISMMLLLCHWDGCLQFLVPMLQDFPSDCWVSINNMVNHSWSELYSFALFKAMSHMLCIGYGRQAPESMTDIWLTMLSMIVGATCYAMFIGHATALIQSLDSSRRQYQEKYKQVEQYMSFHKLPADFRQKIHDYYEHRYQGKMFDEDSILGELNGPLREEIVNFNCRKLVASMPLFANADPNFVTAMLTKLKFEVFQPGDYIIREGTIGKKMYFIQHGVVSVLTKGNKEMKLSDGSYFGEICLLTRGRRTASVRADTYCRLYSLSVDNFNEVLEEYPMMRRAFETVAIDRLDRIGKKNSILLHKVQHDLSSGVFNNQENAIIQEIVKYDREMVQQAELGQRVGLFPPPPPPQVTSAIATLQQAVAMSFCPQVARPLVGPLALGSPRLVRRAPPGPLPPAASPGPPAASPPAAPSSPRAPRTSPYGVPGSPATRVGPALPARRLSRASRPLSASQPSLPHGVPAPSPAASARPASSSTPRLGPAPTARTAAPSPDRRDSASPGAASGLDPLDSARSRLSSNL
  binding: binds
